Test results reported in PubChem BioAssay AID1487 (National Center for Advancing Translational Sciences (NCATS), 2009).
About 25 (0.01%) of roughly 200,000 compounds were called active. Inconclusive results, whose numbers are uncertain, are shown with a selection of clear calls. The call rests on the fitted dose curve; in most records, active means well fitted inhibition curve with a large enough effect in the signal ratio, with a control signal flat (not every such curve was filed as active); inconclusive means small, poorly fitted or top-dose-only effect, or effect the other way, or a change in a side signal; inactive means flat fitted curve, though single readings scatter; the % refers to the signal ratio. Potencies of inconclusive entries are doubtful fits and often do not repeat.
On the % scale 0 is the no-effect control and ±100 the full control effect; potency means the concentration at half of the fitted maximal effect.

Experiment: qHTS Assay for Modulators of Lamin A Splicing
Details: HeLa LMNA splicing GFP/RFP minigene ratio, 48 h; ratio change, negative = inhibition: at 46.1 µM (top of the series) unless noted
Summary of the method: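 Read-out is the ratio of GFP to DsRed2 object intensity, acquired by 488 nm laser-scanning cytometry on HeLa lamin A-EGFP minigene reporter cells. Compound incubation 48 hrs at 37 °C in Opti-MEM with 2% FBS; DMSO 0.5% final.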
With O=C(NCCc1ccccc1)c1cc(=O)[nH]c2ccccc12 the ratio change, negative = inhibition was inconclusive: -16% [at 46 µM]. With Cn1c(CSCc2ccccc2)nnc1SCC(=O)Nc1nccs1 the Potency was inconclusive: 35.5 µM [falling, single point]. For CC1CCCC(NC(=O)NC(=O)CCl)C1C (stereo not drawn), the ratio change, negative = inhibition was inconclusive: 189%. For Cc1ccccc1N1C(=O)CC1(C#N)c1ccc(OCc2ccccc2)cc1 (stereo not drawn), the Potency was inconclusive: 35.5 µM [fluorescent, single point]. In the case of O=C(NCc1cccc(CNC(=O)c2ccco2)c1)c1ccco1, the “ratio change, negative = inhibition” value is reported as inactive: -9.72%. With COCc1cc(CN2CCCC2)c(O)c2ncccc12 the “ratio change, negative = inhibition” value was inactive: -7.34%. For COc1ccc(CNC(=O)c2cc3cc(C)ccc3n2C)cc1, the ratio change, negative = inhibition was inconclusive: -63.2% [at 46 µM]. For CCN1C(=O)CSc2ccc(C(=O)OC)cc21, the “ratio change, negative = inhibition” value was inactive: -5.57%. In the case of COc1ccc(O)c(-c2cc(C(F)(F)C(F)F)nc(-c3ccccc3)n2)c1, the ratio change, negative = inhibition is reported as inconclusive: 12.4%. In the case of Cc1cc(C)cc(Nc2cc(-c3ccccc3)nc(C)n2)c1, the Potency is reported as inconclusive: 35.5 µM [cytotoxic, single point]. With O=C(CNS(=O)(=O)c1cccs1)Nc1ccc2c(c1)OCCO2 the ratio change, negative = inhibition was inconclusive: 9.51%. With Cc1ccc(NC(=O)O/N=C/c2cccc([N+](=O)[O-])c2)cc1 the ratio change, negative = inhibition was inconclusive: 13.1% [at 46 µM]. In the case of Cc1cc(NC(=O)c2cc(-c3ccco3)on2)n(-c2ccccc2)n1, the “ratio change, negative = inhibition” value is reported as inactive: -11.8%. With CCOC(=O)c1[nH]c2ccc(Br)cc2c1NC(=O)CCN1CCC(C(=O)OCC)CC1 the “ratio change, negative = inhibition” value was inactive: -20%. With CCC(CC)C(=O)NCc1ccc(Cl)cc1 the ratio change, negative = inhibition was inconclusive: -15.8% [at 46 µM]. For S=C(Nc1ccc(Oc2ccccc2)cc1)N(CCCN1CCOCC1)Cc1ccccn1, the ratio change, negative = inhibition was inconclusive: -26.1% [at 46 µM]. For Cc1nc2ccccc2c(C)c1C(=O)c1ccc(F)cc1, the ratio change, negative = inhibition was inconclusive: -31.1% [at 46 µM]. With CCC1=[N+](CC(=O)c2ccc(C)cc2)CCn2c(C)ccc21 the Potency was inconclusive: 35.5 µM [falling, single point]. With COc1cc(NC(=O)c2cccs2)c(C(=O)OCC(=O)NC(=O)NC(C)(C)C)cc1OC the “ratio change, negative = inhibition” value was inactive: 7.99%. For O=C(N/N=C/c1ccccc1)c1sccc1OCc1ccc(F)cc1, the ratio change, negative = inhibition was inconclusive: -10.9%. For CCOc1ccc(N2CC(c3nc(-c4cc(OC)c(OC)c(OC)c4)no3)CC2=O)cc1 (stereo not drawn), the ratio change, negative = inhibition was inconclusive: -23.8% [at 46 µM]. For CN(NS(C)(=O)=O)c1c(C#N)c(C(F)(F)F)nn1C, the “ratio change, negative = inhibition” value was inactive: 19.8% [at 46 µM]. With Cc1cc(-c2csc(NC(=O)c3ccc(S(=O)(=O)N(C)C)cc3)n2)c(C)n1-c1ccccc1 the Potency was inconclusive: 3.16 µM [fluorescent, full curve]. For CC(O)CNCCOc1cccc(Oc2ccccc2)c1 (stereo not drawn), the ratio change, negative = inhibition was inconclusive: 8.16% [at 46 µM]. In the case of Cc1cccc2c(=O)c(Br)c(C)n(Cc3ccccc3)c12, the ratio change, negative = inhibition is reported as inconclusive: -21.4% [at 46 µM]. For O=C(CCl)Nc1cccn2ncnc12, the “ratio change, negative = inhibition” value was inactive: -10.1%. With CC1(C)CC(=O)C2=C(C1)N(c1cccnc1)C(N)=C(C#N)C2c1cccs1 (stereo not drawn) the ratio change, negative = inhibition was inconclusive: -20.4%. In the case of Cc1ccc(CN=C(N)Nc2nc(C)cc(C)n2)cc1, the ratio change, negative = inhibition is reported as inconclusive: -45.5% [at 46 µM]. In the case of Cc1c(C(=O)N2CCN(c3ccccc3)CC2)sc2ncnc(N3CCC(C)CC3)c12, the Potency is reported as inconclusive: 35.5 µM [fluorescent, single point]. For Cc1ccc(SCc2cn3c(C)csc3n2)cc1, the Potency was inconclusive: 35.5 µM [fluorescent, single point]. With C=CCn1c(O)c(C(CC)=Nc2ccccc2NC(=O)CC)c(=O)[nH]c1=O the “ratio change, negative = inhibition” value was inactive: -6.26%. With CCCc1cc(=O)oc2cc(Oc3ncccn3)ccc12 the “ratio change, negative = inhibition” value was inactive: 11.5%. With COc1ccc(-c2nc3scc(CCNS(=O)(=O)c4ccc(F)cc4F)n3n2)cc1OC the “ratio change, negative = inhibition” value was inactive: 1.95% [at 46 µM]. For O=C(CN1CCSCC1)N/N=C/c1ccccc1F, the “ratio change, negative = inhibition” value was inactive: 2.5%. For O=C(CSC1=NCCN1)NC(c1ccccc1)c1ccccc1, the ratio change, negative = inhibition was inconclusive: -43.7% [at 46 µM]. For CCOC(=O)c1[nH]c(C)c(C(=O)NCc2ccccn2)c1C, the “ratio change, negative = inhibition” value was inactive: -9.64%. With CC(NC(=O)C1CCN(S(=O)(=O)N2CCCCCC2)CC1)c1ccccc1 (stereo not drawn) the ratio change, negative = inhibition was inconclusive: -10.8%. With O=c1oc2ccc(Br)cc2cc1S(=O)(=O)c1ccc(F)cc1 the Potency was inconclusive: 5.01 µM [inhibitor, partial curve]. With C/C=C/c1ccc(OCC(=O)Nc2cc(OC)c(OC)c(OC)c2)c(OC)c1 the ratio change, negative = inhibition was inconclusive: -32.8% [at 46 µM]. In the case of CN1C(=O)/C(=N\OC(=O)c2ccccc2Cl)c2ccccc21, the ratio change, negative = inhibition is reported as inconclusive: 36.2% [at 46 µM]. For CC1=NN(c2ccc(C(=O)O)cc2)C(=O)/C1=C\c1ccc(OC(=O)c2cccs2)cc1, the “ratio change, negative = inhibition” value was inactive: 14.1% [at 46 µM]. For COc1ccc(Cn2cccc(NC(=O)Nc3ccc(F)cc3)c2=O)cc1, the ratio change, negative = inhibition was inconclusive: 13.6% [at 46 µM]. In the case of O=C(NC1CCCc2ccccc21)c1n[nH]c(=O)c2ccccc12 (stereo not drawn), the ratio change, negative = inhibition is reported as inconclusive: -25.4% [at 46 µM]. In the case of COc1cccc(-n2c(COc3ccc(C)cc3)nnc2SCC(=O)O)c1, the “ratio change, negative = inhibition” value is reported as inactive: 3.43%. With COCCNc1ncnc2c1c(-c1ccccc1)cn2-c1ccc(C)c(Cl)c1 the ratio change, negative = inhibition was inconclusive: -23.2% [at 46 µM]. With Cc1cc(S(=O)(=O)C(CNC(=O)c2ccc(OC(C)C)cc2)c2cccs2)ccc1F (stereo not drawn) the ratio change, negative = inhibition was inconclusive: -15.6% [at 46 µM]. In the case of CCOc1ccc(-n2c(SCC(=O)N3CCc4ccccc43)nc3c([nH]c4ccccc43)c2=O)cc1, the “ratio change, negative = inhibition” value is reported as inactive: 8.66% [at 46 µM]. In the case of CCC(=O)Nc1cc(-c2cccc(C)c2)nn1-c1ccccc1, the “ratio change, negative = inhibition” value is reported as inactive: -11.3% [at 46 µM]. With CC(=O)Nc1cc(C(C)C)c(O)c(C(C)C)c1 the “ratio change, negative = inhibition” value was inactive: -1.47%. For CCOC(=O)CNc1nc(Oc2ccc(=O)n(C)n2)nc(N(CC)CC)n1, the ratio change, negative = inhibition was inconclusive: -34.8% [at 46 µM]. For Cc1ccccc1Cn1ccc(NC(=O)c2nn(C)cc2[N+](=O)[O-])n1, the Potency was inconclusive: 2.51 µM [inhibitor, full curve]. For COc1ccc(CCNC(=O)NC2CCCCC2)cc1OC, the “ratio change, negative = inhibition” value was inactive: 4.95%. In the case of Cc1ccc(C2CCN(C(=O)c3cnn(-c4cccc(Cl)c4)c3C3CCN(C(=O)OC(C)(C)C)CC3)C2)cc1 (stereo not drawn), the ratio change, negative = inhibition is reported as inconclusive: -17.4% [at 46 µM].
